In patent US20240075161A1:
These are yes or no findings as the source states them, for the method shown. Some binding calls cover weakened binding; strength is not graded here. Tags and fused reporters may be left off the sequences shown.

Target: T1, Colony stimulating factor 1 receptor (CSF1R) on CSF1R+ cells (mouse) (UniProt P09581)
T1 sequence (looked up): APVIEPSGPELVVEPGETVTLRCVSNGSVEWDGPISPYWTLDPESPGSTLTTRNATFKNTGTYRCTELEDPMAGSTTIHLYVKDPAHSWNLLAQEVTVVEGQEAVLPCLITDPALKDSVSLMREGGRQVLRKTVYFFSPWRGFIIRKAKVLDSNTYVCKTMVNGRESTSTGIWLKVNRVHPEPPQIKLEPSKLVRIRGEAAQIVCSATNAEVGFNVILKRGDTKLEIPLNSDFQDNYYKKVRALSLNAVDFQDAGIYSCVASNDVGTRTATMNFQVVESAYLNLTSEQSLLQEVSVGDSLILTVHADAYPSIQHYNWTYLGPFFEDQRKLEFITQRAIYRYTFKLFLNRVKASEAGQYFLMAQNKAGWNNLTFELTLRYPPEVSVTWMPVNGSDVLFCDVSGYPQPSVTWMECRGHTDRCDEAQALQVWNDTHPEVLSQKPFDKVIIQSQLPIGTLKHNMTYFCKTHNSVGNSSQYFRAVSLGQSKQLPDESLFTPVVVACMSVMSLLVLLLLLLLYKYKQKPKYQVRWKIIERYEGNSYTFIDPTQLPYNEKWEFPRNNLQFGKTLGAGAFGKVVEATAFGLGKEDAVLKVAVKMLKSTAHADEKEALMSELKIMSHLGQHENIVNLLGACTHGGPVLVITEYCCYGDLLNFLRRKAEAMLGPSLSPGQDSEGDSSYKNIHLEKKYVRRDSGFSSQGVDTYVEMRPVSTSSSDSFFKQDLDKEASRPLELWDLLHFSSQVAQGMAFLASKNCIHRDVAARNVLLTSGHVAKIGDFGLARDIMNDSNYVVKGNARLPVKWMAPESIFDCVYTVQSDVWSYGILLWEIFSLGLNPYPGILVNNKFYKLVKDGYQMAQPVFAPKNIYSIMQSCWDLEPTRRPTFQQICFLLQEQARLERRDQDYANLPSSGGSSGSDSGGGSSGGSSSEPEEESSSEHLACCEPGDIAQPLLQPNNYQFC
Assay: fluorescence images of exosome uptake by CSF1R+ cells, stained with anti-CSF1R antibody

B1: Lamp2b signaling peptide-linker-mouse CSF1R targeting peptides-linker-mouse IgG2b-linker-Myc-Lamp2b C-terminus fusion, displayed on HEK293 engineered exosomes (Fc fusion)
chain: SAGNSTMGSGSEHCSHMIGNGHLKVLQQLIDSQMETSCQIAFEFVDQEQLDDPVCYLKKAFFLVQDIIDETMRFKDNTPNANATERLQELSNNLNSCFTKDYEEQNKACVRTFHETPLQLLEKIKNFFNETKNLLEGSGSGGSSGSGPISTINPCPPCKECHKCPAPNLEGGPSVFIFPPNIKDVLMISLTPKVTCVVVDVSEDDPDVQISWFVNNVEVHTAQTQTHREDYNSTIRVVSTLPIQHQDWMSGKEFKCKVNNKDLPSPIERTISKIKGLVRAPQVYILPPPAEQLSRKDVSLTCLVVGFNPGDISVEWTSNGHTEENYKDTAPVLDSDGSYFIYSKLDIKTSKWEKTDSFSCNVRHEGLKNYYLKKTISRSPGDIGEQKLISEEDLLIVNLTDSKGTCLYAEWEMNFTITYETTNQTNKTITIAVPDKATHDGSSCGDDRNSAKIMIQFGFAVSWAVNFTKEASHYSIHDIVLSYNTSDSTVFPGAVAKGVHTVKNPENFKVPLDVIFKCNSVLTYNLTPVVQKYWGIHLQAFVQNGTVSKNEQVCEEDQTPTTVAPIIHTTAPSTTTTLTPTSTPTPTPTPTPTVGNYSIRNGNTTCLLATMGLQLNITEEKVPFIFNINPATTNFTGSCQPQSAQLRLNNSQIKYLDFIFAVKNEKRFYLKEVNVYMYLANGSAFNISNKNLSFWDAPLGSSYMCNKEQVLSVSRAFQINTFNLKVQPFNVTKGQYSTAEECAADSDLNFLIPVAVGVALGFLIIAVFISYMIGRRKSRTGYQSVHHHHHH
For B1, the binding was “binds”.
